Test results published in the supplement of paper PMC12823440, “Inhibitors supercharge kinase turnover through native proteolytic circuits” (Nature, 2025).
Structures can show the parent of a compound that is named as a salt. This is one part of the list. The calls rarely recur for the same compound in another form.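 Kinases, fused to nanoluciferase, were expressed in K562 cells; luminescence was measured every 4 h from 2 to 18 h as percent of control (DMSO = 100%, positive control = 0%). A time point is decreased if signal falls significantly (2 sigma). Hits were called by the authors by a rule that is not shown; the count of time points alone does not decide it.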

Chains of the proteins cited; added tags and fusions are not shown.
UniProt Q16288, whole entry, looked up: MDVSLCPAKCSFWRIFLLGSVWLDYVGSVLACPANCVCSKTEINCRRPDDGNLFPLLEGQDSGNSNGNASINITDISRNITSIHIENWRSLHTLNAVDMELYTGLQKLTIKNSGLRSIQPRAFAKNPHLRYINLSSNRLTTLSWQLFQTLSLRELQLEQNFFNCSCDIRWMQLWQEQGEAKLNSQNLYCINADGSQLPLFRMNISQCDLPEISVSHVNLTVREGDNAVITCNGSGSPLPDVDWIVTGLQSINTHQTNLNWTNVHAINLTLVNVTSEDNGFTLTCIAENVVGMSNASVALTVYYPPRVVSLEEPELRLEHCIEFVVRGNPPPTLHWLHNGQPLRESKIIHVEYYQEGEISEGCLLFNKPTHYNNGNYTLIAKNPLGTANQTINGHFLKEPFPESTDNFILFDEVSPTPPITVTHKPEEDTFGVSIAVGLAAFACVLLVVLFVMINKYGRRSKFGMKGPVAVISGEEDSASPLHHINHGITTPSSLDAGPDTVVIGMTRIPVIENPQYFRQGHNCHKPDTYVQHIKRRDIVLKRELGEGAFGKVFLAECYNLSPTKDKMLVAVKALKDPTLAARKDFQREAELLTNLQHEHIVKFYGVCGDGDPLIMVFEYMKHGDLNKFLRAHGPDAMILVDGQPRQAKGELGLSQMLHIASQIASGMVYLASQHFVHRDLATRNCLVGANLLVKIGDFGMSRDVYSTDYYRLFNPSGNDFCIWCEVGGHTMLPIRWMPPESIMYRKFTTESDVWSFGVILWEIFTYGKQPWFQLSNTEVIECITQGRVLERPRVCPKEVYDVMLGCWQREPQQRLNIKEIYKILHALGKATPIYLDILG

Each compound was assayed against NTRK3 (UniProt Q16288) (assay: number of time points (of 5) at which kinase-Nluc abundance scored as decreased, DMSO-normalised (count); higher = more persistent destabilization). Details: K562; 2-18 h.
For `C[C@H]1CC[C@]2(NC1)O[C@H]1C[C@H]3[C@@H]4CC[C@H]5C[C@@H](O[C@@H]6O[C@H](CO)[C@H](O[C@@H]7O[C@H](CO)[C@@H](O)[C@H](O[C@@H]8OC[C@@H](O)[C@H](O)[C@H]8O)[C@H]7O[C@@H]7O[C@H](CO)[C@@H](O)[C@H](O)[C@H]7O)[C@H](O)[C@H]6O)CC[C@]5(C)[C@H]4CC[C@]3(C)[C@H]1[C@@H]2C` [Tomatine] (2.5 µM), the “number of time points” value was 5.
For `CCCCNc1nc(N)c2[nH]c(=O)n(Cc3ccc(C)nc3)c2n1` (10 µM), the “number of time points” value was 0.
For `C[C@H](CCC(=O)O)C[C@H](C)C[C@H](C)C(=O)/C=C(\O)[C@H](C)C[C@H](C)C/C=C/[C@@H](C)[C@@H](O)[C@@H](C)[C@@H](O)C[C@@H]1CC[C@@](C)([C@H]2CC[C@@](C)([C@@H](C)O)O2)O1` [Ionomycin (calcium)] (2.5 µM), the “number of time points” value was 0.
With `CCOC(=O)c1c(/C(C#N)=C\N)c2ccc(Cl)c(Cl)c2n1C` (10 µM) the “number of time points” value was 0.
With `CC(=O)OC(C)(C)/C=C/C(=O)[C@](C)(O)[C@H]1[C@H](O)C[C@@]2(C)[C@@H]3CC=C4[C@@H](C=C(O)C(=O)C4(C)C)[C@]3(C)C(=O)C[C@]12C` [Cucurbitacin E] (2.5 µM) the “number of time points” value was 0.
For `O=C1C=CC[C@@H]2[C@H]3CCCN4CCC[C@@H](CN12)[C@@H]34` [Sophocarpine (monohydrate)] (2.5 µM), the “number of time points” value was 0.
In the case of `C=CC(=O)Nc1ccc2[nH]c(=O)n(C3CCN(Cc4ccc(-c5nc6cc[nH]c(=O)c6cc5-c5ccccc5)cc4)CC3)c2c1` [Borussertib] (10 µM), the “number of time points” value is reported as 0.
For `O=C1C=CC[C@@H]2[C@H]3CCCN4CCC[C@@H](CN12)[C@@H]34` [Sophocarpine] (10 µM), the “number of time points” value was 0.
In the case of `C=CC(=O)N[C@H]1C=C(C)c2c(-c3cnc4ccccc4c3)c3c(N)ncnc3n2C1` (10 µM), the “number of time points” value is reported as 0.
For `Cn1cc(C2=C(c3cn(C4CCN(Cc5ccccn5)CC4)c4ccccc34)C(=O)NC2=O)c2ccccc21` [Enzastaurin] (10 µM), the “number of time points” value was 0.
In the case of `CCN1CCN(C(=O)Cc2ccc(Nc3ncc(F)c(Nc4ccc(C(=O)Nc5ccccc5Cl)cc4)n3)cc2)CC1` (2.5 µM), the “number of time points” value is reported as 0.
With `C[C@H]1CC[C@]2(NC1)O[C@H]1C[C@H]3[C@@H]4CC[C@H]5C[C@@H](O)CC[C@]5(C)[C@H]4CC[C@]3(C)[C@H]1[C@@H]2C` [Tomatidine (hydrochloride)] (10 µM) the “number of time points” value was 0.
`O=[N+]([O-])/C=C/c1ccc2c(c1)OCO2` (2.5 µM) was tested, and the “number of time points” value was 0.
`NCCc1cn(S(=O)(=O)c2c(Cl)nc3sccn23)c2ccccc12` (10 µM) was tested, and the “number of time points” value was 0.
`COc1ccc(N(C(=O)Oc2c(C)cccc2C)c2ccnc(Nc3ccc(N4CCN(C)CC4)cc3)n2)c(OC)c1` (2.5 µM) was tested, and the “number of time points” value was 0.
With `Cc1ccccc1-n1c(Cn2cnc3c(N)ncnc32)nc2cccc(C)c2c1=O` (10 µM) the “number of time points” value was 0.
For `Cc1[nH]ncc1-c1cc2nc([C@H]3CC4CCN3CC4)[nH]c(=O)c2s1` [(R)-Simurosertib] (10 µM), the “number of time points” value was 0.
For `CC1C(=O)OC2C(O)C34C5OC(=O)C3(OC3OC(=O)C(O)C34C(C(C)(C)C)C5O)C12O` (stereo not drawn) [Ginkgolide C] (10 µM), the “number of time points” value was 0.
In the case of `O=C(/C=C/c1ccccc1)OC[C@H]1O[C@@H](O[C@@H]2OC=C[C@H]3[C@H](O)[C@@H]4O[C@]4(CO)[C@@H]23)[C@H](O)[C@@H](O)[C@@H]1O` [Picroside I] (10 µM), the “number of time points” value is reported as 0.
With `CC1=C[C@]23C(=O)[C@@H](C=C(CO)[C@@H](O)[C@]2(O)[C@H]1O)[C@H]1[C@@H](C[C@H]3C)C1(C)C` [Ingenol] (10 µM) the “number of time points” value was 0.
For `O=Cc1cn(Cc2ccc(Cl)cc2)c2ccccc12` [Oncrasin-1] (10 µM), the “number of time points” value was 0.
With `C[C@@H]1CC[C@H]2[C@@H](C)C(=O)O[C@@H]3O[C@@]4(C)CC[C@@H]1[C@]32OO4` [Artemisinin] (10 µM) the “number of time points” value was 0.
With `C[C@H](Nc1ncnc2[nH]cnc12)c1nc2ccc(F)cc2c(=O)n1-c1ccccc1` [Acalisib] (10 µM) the “number of time points” value was 0.
In the case of `O=C1c2ccccc2C(=O)c2c1cccc2-c1cnn(C2CCNCC2)c1` [PDK4-IN-1 (hydrochloride)] (10 µM), the “number of time points” value is reported as 0.
In the case of `Cc1ccccc1-n1c(Cn2ncc3c(N)ncnc32)nc2cccc(C)c2c1=O` (10 µM), the “number of time points” value is reported as 0.
With `Nc1ncnc2c1ncn2[C@@H]1O[C@@H]2COP(O)(=S)O[C@H]2[C@H]1O` (stereo partly drawn) [Sp-cAMPS (sodium salt)] (10 µM) the “number of time points” value was 0.
For `CN(C)C(=O)c1ccc(Cn2c(C(=O)O)cc3c(Br)cc(Sc4ccc(Cl)c(Cl)c4)cc32)cc1` [Rheb inhibitor NR1] (10 µM), the “number of time points” value was 0.
`C/C=C(/C)C(=O)O[C@H]1[C@@H]2[C@H](C)C(=O)O[C@@H]2C[C@@H](C)[C@@H]2C=CC(=O)[C@]21C` [Brevilin A] (2.5 µM) was tested, and the “number of time points” value was 0.
